Results published in ChEMBL document CHEMBL1155535, “Synthesis and biological evaluation of tricyclic anilinopyrimidines as IKKbeta inhibitors” (Bioorg Med Chem Lett, 2010).
≈ marks a conversion by molar mass, not a printed value.

Test: Aqueous solubility in at pH 7.4
Conditions: buffer

For NS(=O)(=O)c1ccc(Nc2nccc(-c3ccsc3)n2)cc1, the solubility was 2 µg/mL (≈ 6.02 µM).
